Laboratory results published in publication PMC10238393 (2023).
Results are given in words; binding and its absence hold for the method and conditions named. Some entries that bind do so weakly or less than the wild type.

Molecular target: T1, LPHN2 olfactomedin-like (Olf) domain (human, UniProt O95490 135-394)
T1 chain: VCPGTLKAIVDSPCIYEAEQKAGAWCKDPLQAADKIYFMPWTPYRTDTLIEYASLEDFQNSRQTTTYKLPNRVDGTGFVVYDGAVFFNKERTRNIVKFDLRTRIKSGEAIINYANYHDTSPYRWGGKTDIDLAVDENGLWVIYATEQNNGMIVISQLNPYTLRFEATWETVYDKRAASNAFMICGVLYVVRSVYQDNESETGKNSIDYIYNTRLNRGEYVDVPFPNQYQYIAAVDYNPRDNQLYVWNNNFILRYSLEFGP
Experiment: ELISA; solid-phase binding assay: LPHN2 extracellular domain variants (100 nM) coated on MaxiSorp 96-well plates, 1 h room temperature, blocked with 1% BSA; 0.001-10 μM LRG1 forms added; detected with anti-LRG1 antibody and peroxidase-conjugated secondary antibody; both purified

B1: Deglycosylated LRG1 (LRG1 treated with PNGase F) (natural protein)
chain: VTLSPKDCQVFRSDHGSSISCQPPAEIPGYLPADTVHLAVEFFNLTHLPANLLQGASKLQELHLSSNGLESLSPEFLRPVPQLRVLDLTRNALTGLPPGLFQASATLDTLVLKENQLEVLEVSWLHGLKALGHLDLSGNRLRKLPPGLLANFTLLRTLDLGENQLETLPPDLLRGPLQLERLHLEGNKLQVLGKDLLLPQPDLRYLFLNGNKLARVAAGAFQGLRQLDMLDLSNNSLASVPEGLWASLGQPNWDMRDGFDISGNPWICDQNLSDLYRWLQAQKDKMFSQNDTRCAGPEAVKGQTLLAVAKSQ
modifications: N-glycans removed by PNGase F; Alexa 647-conjugated in the FACS assay
  binding: binds
